Measurements: paper PMC3713036
No constants are given. Whether binding was seen depends on the method and setting. Binding seen in cells or lysates may run through a third protein. Some results given as binding are weak or reduced against the parent protein; the word gives no strength.

Key:
[1] = molecular target: APE1 (endogenous) (human (endogenous in HCT116)) (UniProt P27695); test: co-IP; IP with mouse monoclonal anti-APE1 antibody and protein A/G Plus agarose beads from pre-cleared extracts of HCT116 p53-null cells, control or with ectopic p53 expression; Western for AP4
[2] = molecular target: FLAG-tagged N-terminal 33 amino acid deleted (NΔ33) mutant APE1 (human) (UniProt P27695); test: co-IP; IP with anti-FLAG M2 antibody-conjugated agarose beads from extracts of HCT116 WT cells transfected with FLAG-tagged APE1 constructs; Western for p53 and FLAG; control or etoposide-treated cells (10 µM, 5 hours)
[3] = molecular target: FLAG-tagged wild-type (WT) APE1 (human) (UniProt P27695); test: as above

binding [1]	binding [2]	binding [3]	Molecule
binds	–	–	ectopic p53 (from UniProt P04637 1-393)
–	binds	binds	p53 (from UniProt P04637 1-393)
binds	–	–	AP4 (protein, UniProt Q01664 1-338) MEYFMVPTQKVPSLQHFRKTEKEVIGGLCSLANIPLTPETQRDQERRIRREIANSNERRRMQSINAGFQSLKTLIPHTDGEKLSKAAILQQTAEYIFSLEQEKTRLLQQNTQLKRFIQELSGSSPKRRRAEDKDEGIGSPDIWEDEKAEDLRREMIELRQQLDKERSVRMMLEEQVRSLEAHMYPEKLKVIAQQVQLQQQQEQVRLLHQEKLEREQQQLRTQLLPPPAPTHHPTVIVPAPPPPPSHHINVVTMGPSSVINSVSTSRQNLDTIVQAIQHIEGTQEKQELEEEQRRAVIVKPVRSCPEAPTSDTASDSEASDSDAMDQSREEPSGDGELP
